Taken from: PubChem BioAssay AID602196 (INSERM, 2012)

Purpose: 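Genes whose knock-down alters cisplatin killing of lung cancer cells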
System: human A549 lung cancer cells
Reagent: siRNA pair against human genes
Duration: 48 h transfection before cisplatin; time from cisplatin to read-out not stated
Conditions: cisplatin at a dose killing half of control-siRNA cells; exact dose and duration not given
Detection: 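Cisplatin cell death as a shift from the 50% death seen with control siRNA; siRNAs toxic or growth-blocking alone scored 0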
Scale: two-siRNA summed score (-2 to +2): higher = both siRNAs protect from cisplatin killing; -2 means both sensitise; mean protection from cisplatin (shift in death) and protection from cisplatin (shift in death), siRNA C and protection from cisplatin (shift in death), siRNA D: higher = protection from cisplatin killing
Hit rule: 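siRNAs harmful alone (LDH or WST-1) get 0; others get +1 for less and -1 for more cisplatin killing; genes are active when the two siRNAs give the same sign, summing to ±2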
Calls: active = both siRNAs shift cisplatin killing the same way; inactive = no consistent shift, or siRNA harmful alone
Shown is an unselected part of about 23,000 deposited reagents. 455 of them (2%) count as active. 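Active includes both protection and sensitisation; some change values fall well beyond the stated -50 to +50 range.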 The numbers tell different reagents against one gene apart. Not given: the amount of reagent.

no.	Target gene	reagent no.	two-siRNA summed score (-2 to +2)	mean protection from cisplatin (shift in death) (%)	protection from cisplatin (shift in death), siRNA C (%)	protection from cisplatin (shift in death), siRNA D (%)	Outcome
1	OR2H1 (olfactory receptor family 2 subfamily H member 1)	1	-1	-11.3	-21	-1.6	inactive
2	NCAPG2 (non-SMC condensin II complex subunit G2)	1	0	8.2	-1.9	18.4	inactive
3	SEL1L2 (SEL1L2 adaptor subunit of SYVN1 ubiquitin ligase)	1	-1	-1.2	13	-15.4	inactive
4	DTNA (dystrobrevin alpha)	1	0	2.2	11.5	-7	inactive
5	INSIG1 (insulin induced gene 1)	1	-1	-13	-2.7	-23.3	inactive
6	RNF213 (ring finger protein 213)	1	0	-8.5	-5.2	-11.7	inactive
7	RNF213 (ring finger protein 213)	2	0	-2.9	-2.9	-2.9	inactive
8	WBP2NL (WBP2 N-terminal like)	1	0	6.4	5.3	7.4	inactive
9	ARHGAP10 (Rho GTPase activating protein 10)	1	0	7.1	7.8	6.5	inactive
10	LOC440538	1	1	11.4	9.3	13.5	inactive
11	CXCL5 (C-X-C motif chemokine ligand 5)	1	0	1.7	3.3	0.2	inactive
12	CNOT8 (CCR4-NOT transcription complex subunit 8)	1	-1	-1.2	12.2	-14.7	inactive
13	LINC01002 (long independently transcribed non-coding RNA 1002)	1	0	6	18.4	-6.4	inactive
14	POMT2 (protein O-mannosyltransferase 2)	1	0	5.2	5.1	5.3	inactive
15	DGKB (diacylglycerol kinase beta)	1	0	2.2	-2.2	6.6	inactive
16	BCORL1 (BCL6 corepressor like 1)	1	0	5.7	2.1	9.4	inactive
17	LOC440350	1	0	9.3	17.1	1.4	inactive
18	SRSF11 (serine and arginine rich splicing factor 11)	1	-1	-8.8	-3	-14.6	inactive
19	CCDC125 (coiled-coil domain containing 125)	1	2	12.6	10.9	14.3	active
20	CDKN2AIP (CDKN2A interacting protein)	1	0	9.7	9.7	9.6	inactive
21	RAP1A (RAP1A, member of RAS oncogene family)	1	1	2.5	11.3	-6.3	inactive
22	TMEM187 (transmembrane protein 187)	1	2	17.6	18.7	16.5	active
23	VPREB1 (V-set pre-B cell surrogate light chain 1)	1	0	-4.6	-23.4	14.2	inactive
24	FLJ13815	1	0	9.5	9.1	9.9	inactive
25	PRKCB (protein kinase C beta)	1	1	4.7	13.4	-4.1	inactive
26	ALKAL2 (ALK and LTK ligand 2)	1	0	10.6	-2.1	23.4	inactive
27	LOC285770	1	0	3.2	7	-0.7	inactive
28	PPP3R2 (protein phosphatase 3 regulatory subunit B, beta)	1	0	0.5	11.1	-10.1	inactive
29	OR4C6 (olfactory receptor family 4 subfamily C member 6)	1	0	-7.1	-12.4	-1.8	inactive
30	WDR12 (WD repeat domain 12)	1	-1	-7.8	1.9	-17.4	inactive
31	MMP24 (matrix metallopeptidase 24)	1	0	-15.1	0.9	-31	inactive
32	PKD1L3	1	0	3.6	7.8	-0.7	inactive
33	MICA (MHC class I polypeptide-related sequence A)	1	-1	-15.8	-10.1	-21.5	inactive
34	LOC401079	1	0	11.6	12.5	10.7	inactive
35	AXIN2 (axin 2)	1	0	-4.4	5.6	-14.4	inactive
36	HINT3 (histidine triad nucleotide binding protein 3)	1	1	8.5	8.9	8.1	inactive
37	DDX55 (DEAD-box helicase 55)	1	0	4.2	3.3	5.1	inactive
38	CMTM5 (CKLF like MARVEL transmembrane domain containing 5)	1	0	11.2	10.4	12	inactive

Entries above marked active:
Target gene	reagent no.	two-siRNA summed score (-2 to +2)	mean protection from cisplatin (shift in death) (%)	protection from cisplatin (shift in death), siRNA C (%)	protection from cisplatin (shift in death), siRNA D (%)	Outcome
CCDC125 (coiled-coil domain containing 125)	1	2	12.6	10.9	14.3	active
TMEM187 (transmembrane protein 187)	1	2	17.6	18.7	16.5	active

More reagents:
no.	Target gene	reagent no.	two-siRNA summed score (-2 to +2)	mean protection from cisplatin (shift in death) (%)	protection from cisplatin (shift in death), siRNA C (%)	protection from cisplatin (shift in death), siRNA D (%)	Outcome
39	MAN1B1 (mannosidase alpha class 1B member 1)	1	0	-2	-7.7	3.6	inactive
40	LOC391706	1	0	29.2	42.9	15.5	inactive
41	LYNX1 (Ly6/neurotoxin 1)	1	1	6.6	17.7	-4.6	inactive
42	GART	1	-1	2.4	-11.9	16.7	inactive
43	LOC440494	1	0	-3.1	-10.6	4.4	inactive
44	TMEM214 (transmembrane protein 214)	1	0	-2.6	1.8	-6.9	inactive
45	EIF2B5 (eukaryotic translation initiation factor 2B subunit epsilon)	1	0	0.9	-4.8	6.6	inactive
46	TULP1 (TUB like protein 1)	1	0	3.4	1.6	5.2	inactive
47	SMIM19 (small integral membrane protein 19)	1	0	-2.4	5.5	-10.4	inactive
48	PAGE4 (PAGE family member 4)	1	0	1.5	-2.8	5.8	inactive
49	CTRC (chymotrypsin C)	1	0	-10.9	2	-23.8	inactive
50	HMGCLL1 (3-hydroxy-3-methylglutaryl-CoA lyase like 1)	1	0	4.3	7.4	1.1	inactive
51	ABHD8 (abhydrolase domain containing 8)	1	0	-1.4	-2.5	-0.3	inactive
52	CXCR1 (C-X-C motif chemokine receptor 1)	1	0	-4.1	-4.9	-3.3	inactive
53	ARF1 (ARF GTPase 1)	1	0	0.4	-4	4.7	inactive
54	RIC8B (RIC8 guanine nucleotide exchange factor B)	1	0	8.7	8	9.3	inactive
55	AOX1 (aldehyde oxidase 1)	1	-1	-13.4	8.1	-35	inactive
56	HEBP2 (heme binding protein 2)	1	0	0	3	-2.9	inactive
57	MYH7B (myosin heavy chain 7B)	1	0	9	-10	27.9	inactive
